In publication PMC12411616:
These are yes or no findings as the source states them, for the method shown. Binding seen in cells or lysates may run through a third protein. Some results given as binding are weak or reduced against the parent protein; the word gives no strength.

Target: cyclophilin D (CypD), endogenous (human (endogenous in MM cell lines and HEK293)), P30405
Assay: co-IP; Fig. 4r; cells overexpressing circp53–209aa or circp53–209aa-R175H; bait and cell line not told in the text or legend
Conditions: remark: other sources report otherwise

B1: TRAP1, endogenous, Q12931 60-704 (protein)
chain: STQTAEDKEEPLHSIISSTESVQGSTSKHEFQAETKKLLDIVARSLYSEKEVFIRELISNASDALEKLRHKLVSDGQALPEMEIHLQTNAEKGTITIQDTGIGMTQEELVSNLGTIARSGSKAFLDALQNQAEASSKIIGQFGVGFYSAFMVADRVEVYSRSAAPGSLGYQWLSDGSGVFEIAEASGVRTGTKIIIHLKSDCKEFSSEARVRDVVTKYSNFVSFPLYLNGRRMNTLQAIWMMDPKDVREWQHEEFYRYVAQAHDKPRYTLHYKTDAPLNIRSIFYVPDMKPSMFDVSRELGSSVALYSRKVLIQTKATDILPKWLRFIRGVVDSEDIPLNLSRELLQESALIRKLRDVLQQRLIKFFIDQSKKDAEKYAKFFEDYGLFMREGIVTATEQEVKEDIAKLLRYESSALPSGQLTSLSEYASRMRAGTRNIYYLCAPNRHLAEHSPYYEAMKKKDTEVLFCFEQFDELTLLHLREFDKKKLISVETDIVVDHYKEEKFEDRSPAAECLSEKETEELMAWMRNVLGSRVTNVKVTLRLDTHPAMVTVLEMGAARHFLRMQQLAKTQEERAQLLQPTLEINPRHALIKKLNQLRASEPGLAQLLVDQIYENAMIAAGLVDDPRAMVGRLNELLVKALERH
binding: binds
